Test results as given in paper PMC10044640 (Antibiotics, 2023).

Test: general procedure: Fmoc solid-phase peptide synthesis; H-His(Trt)-2-ClTrt resin, loading 0.71 mmol g-1, or Fmoc-Arg(Pbf)-Wang resin, loading 0.59 mmol g-1
Conditions: whole synthesis, HCl salt; for purity (crude or final not stated) / final HPLC purity: 214 nm; for purity (crude or final not stated) / final HPLC purity / isolated yield: scale of the general procedure 100 mg resin per peptide

| Substance | purity (crude or final not stated) | final HPLC purity | isolated mass | isolated yield |
| --- | --- | --- | --- | --- |
| H-Glu-Ser-Arg-Ile-His-OH | >95% |  |  |  |
| H-Glu-Ser-Arg-Leu-His-OH | >95% |  |  |  |
| H-Glu-Ser-His-Ile-His-OH | >95% |  |  |  |
| H-Glu-Thr-His-Ile-His-OH | >95% |  |  |  |
| H-Glu-Tyr-Arg-Ile-Arg-OH | 90% |  |  |  |
| H-Thr-Ser-His-Leu-Arg-OH | 93% |  |  |  |
| H-Thr-Ser-His-Leu-His-OH |  | >95% | 14.1 mg | 28% |
| H-Thr-Thr-His-Ile-Arg-OH | 82% |  |  |  |
| H-Thr-Tyr-Arg-Leu-Arg-OH | 82% |  |  |  |
| H-Thr-Tyr-His-Leu-His-OH |  | >95% | 26.8 mg | 49% |
